{"source": "PubChem BioAssay AID504467", "about": "(National Center for Advancing Translational Sciences (NCATS), 2011)", "note": "About 7,700 (2.3%) of roughly 330,000 compounds were called active. The shares of active, inactive and inconclusive entries below differ from those in the screen. Calls come from the whole dose curve; as a rule, active = well fitted inhibition curve with a large enough effect; inconclusive = small, poorly fitted or top-dose-only effect, or effect the other way; inactive = flat fitted curve, though single readings scatter. Potencies beside an inconclusive call are fits to weak or partial responses and may not hold up. Potency is the fitted concentration of half-maximal effect.", "data": [{"assay": "qHTS screen for small molecules that inhibit ELG1-dependent DNA repair in human embryonic kidney (HEK293T) cells expressing luciferase-tagged ELG1; note: nearly all actives have a fitted effect of over 55% in size", "settings": "HEK293T ELG1-luciferase reporter, luminescence, 16 h, DNA damage induced by 5-fluorouridine; series mostly up to 46.1 µM", "procedure,_shortened": "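Luminescence from the luciferase reporter, measured 30 min after ONE-Glo reagent at room temperature, was the read-out. Beforehand, 2,000 cells per well were exposed for 16 hr at 37 °C to 5-fluorouridine together with compound or vehicle.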", "values": [{"smiles": "O=C(O)c1ccc(-n2c(-c3ccc(Br)cc3)n[nH]c2=S)cc1", "Potency": "inactive"}, {"smiles": "CCOC(=O)c1sc(NC(=O)c2cccc(S(=O)(=O)N(CC)CC)c2)cc1C", "Potency": "inactive"}, {"smiles": "Cc1sc2nc3ccc(N4CCCC4)nn3c(=O)c2c1C", "Potency": "inactive"}, {"smiles": "Cc1ccc2nc(-c3ccc(NC(=O)CSc4nc(N)cc(=O)[nH]4)cc3)sc2c1", "Potency": "inconclusive: 10.3 µM [activator, partial curve]"}, {"smiles": "CCO[C@H]1OC(C(=O)NCc2ccccc2)=C[C@@H](c2ccccc2)[C@@H]1CCCO", "Potency": "inactive"}, {"smiles": "Cc1cccc(NC(=O)COC(=O)CC2CCCC2)c1C", "Potency": "inactive"}, {"smiles": "O=C(CCCOc1ccc(Cl)cc1Cl)Nc1nnc(C2CC2)s1", "Potency": "inconclusive: 23.1 µM [activator, partial curve, poor fit]"}, {"smiles": "Cc1cccc(Oc2nc3c(c(=O)n(C)c(=O)n3C)n2C)c1", "Potency": "inconclusive: 14.6 µM [inhibitor, partial curve]"}, {"smiles": "O=C(c1ccc(-c2cccc(C(F)(F)F)c2)o1)N1CCCC(C(F)(F)F)C1", "note": "(stereo unspecified)", "Potency": "inactive"}, {"smiles": "Cc1ccccc1OCCC(=O)Nc1ccccc1C(=O)NC1CC1", "Potency": "inactive"}, {"smiles": "CCc1cccc(C)c1NC(=O)CN(C)Cc1ccc(Br)cc1", "Potency": "inconclusive: 18.3 µM [inhibitor, single point]"}, {"smiles": "CC1CCCCC1NC(=O)CCC(=O)N1CCOc2ccc(Cl)cc21", "note": "(stereo unspecified)", "Potency": "inconclusive: 14.6 µM [activator, single point]"}, {"smiles": "Cc1cc(=O)[nH]c(SCC(=O)NCCc2ccccc2)n1", "Potency": "inconclusive: 16.4 µM [activator, partial curve, poor fit]"}, {"smiles": "Cc1ccc(CNC(=O)c2ccccc2NC(=O)CN2CC(C)OC(C)C2)cc1", "note": "(stereo unspecified)", "Potency": "inconclusive: 20.6 µM [inhibitor, single point]"}, {"smiles": "C/C(=N\\Nc1cccc(C(=O)O)c1)c1ccc2c(c1)Nc1ccccc1S2", "Potency": "inconclusive: 18.3 µM [activator, partial curve]"}, {"smiles": "COc1ccccc1N1C(=NC(=O)CCC2CCCC2)SC2CS(=O)(=O)CC21", "note": "(stereo unspecified)", "Potency": "inconclusive: 32.6 µM [activator, partial curve, poor fit]"}, {"smiles": "CN(C(=O)COC(=O)c1cc2ccccc2oc1=O)C1CCCCC1", "Potency": "inconclusive: 29.1 µM [activator, single point]"}, {"smiles": "CS(=O)(=O)N(CC(=O)NCCSCc1ccccc1Cl)c1ccc(F)cc1", "Potency": "inactive"}, {"smiles": "O=C(Nc1nc2ccc(F)cc2s1)C1=COCCO1", "Potency": "inconclusive: 0.517 µM [activator, partial curve, poor fit]"}, {"smiles": "COc1ccccc1NC(=O)Nc1nc(CC(=O)NCc2ccc(F)cc2)cs1", "Potency": "inconclusive: 9.2 µM [inhibitor, single point]"}, {"smiles": "CNC(=O)c1cc(Nc2nnc(-c3ccc(O)cc3)c3ccccc23)ccc1OC", "Potency": "inactive"}, {"smiles": "Fc1ccc(-n2cc(-c3ccccc3)[n+]3c2SCC3)cc1", "Potency": "inactive"}, {"smiles": "O=C(NNC(=S)NC1CCCCC1)c1ccc2c(c1)OCO2", "Potency": "inconclusive: 16.4 µM [activator, single point]"}, {"smiles": "CCC(C)NC(=O)C1CCN(S(=O)(=O)c2ccc(Br)s2)CC1", "note": "(stereo unspecified)", "Potency": "inconclusive: 5.8 µM [inhibitor, full curve, poor fit]"}, {"smiles": "Cn1c2ccccc2c2nnc(SCC(=O)NC3CC3)nc21", "Potency": "inactive"}, {"smiles": "CC1COc2ccccc2N1C(=O)c1ccccc1Cl", "note": "(stereo unspecified)", "Potency": "inactive"}, {"smiles": "CCCCCCCCCCS(=O)(=O)N/N=C/c1ccc(O)cc1", "Potency": "inactive"}, {"smiles": "N#C/C(=C\\c1ccncc1)c1ccc(NC(N)=O)cc1", "Potency": "inconclusive: 8.2 µM [inhibitor, partial curve, poor fit]"}, {"smiles": "Cc1ccc2nc(Cl)c(/C=N/n3c(C)nnc3C)cc2c1", "Potency": "inconclusive: 16.4 µM [activator, single point]"}, {"smiles": "CCCCc1cc(=O)oc2cc(C)cc(OC(C)C(=O)NCc3ccncc3)c12", "note": "(stereo unspecified)", "Potency": "inconclusive: 0.651 µM [activator, single point]"}, {"smiles": "C=CCNC(=O)C1CC(=O)N(c2ccc(OCc3ccccc3Cl)cc2)C1", "note": "(stereo unspecified)", "Potency": "inconclusive: 14.6 µM [activator, partial curve]"}, {"smiles": "Cn1c(-c2ccccc2O)cc2ccccc21", "Potency": "inactive"}, {"smiles": "COc1ccc(/C=C/C(=O)c2cc(F)ccc2OC(=O)c2ccccc2OC)cc1OC", "Potency": "inconclusive: 29.1 µM [inhibitor, single point]"}, {"smiles": "Cc1ccc2c(CN(C)Cc3cccc(F)c3)cc(=O)oc2c1", "Potency": "inconclusive: 16.4 µM [activator, partial curve]"}, {"smiles": "CCCCn1c(N)c(N(CC)C(=O)CSc2nnnn2-c2cc(C)ccc2C)c(=O)[nH]c1=O", "Potency": "inconclusive: 1.83 µM [activator, partial curve, poor fit]"}, {"smiles": "Cc1cc(C)c(S(=O)(=O)N2CCC(C(=O)NCc3ccc(Cl)cc3Cl)CC2)c(C)c1", "Potency": "inconclusive: 20.6 µM [inhibitor, single point]"}, {"smiles": "Nn1c(SCC(=O)NC2CCCCC2)nnc1-c1ccco1", "Potency": "inconclusive: 5.62 µM [activator, full curve, poor fit]"}, {"smiles": "CCOC(=O)c1c(-c2ccc(C)o2)csc1NC(=O)CSc1nnc(C)s1", "Potency": "inconclusive: 29.1 µM [inhibitor, partial curve, poor fit]"}, {"smiles": "O=C(C1=C(O)C(=O)N(CCN2CCOCC2)C1c1cccc(F)c1)c1cc2ccccc2o1", "note": "(stereo unspecified)", "Potency": "inactive"}, {"smiles": "CCCCc1cc(=O)oc2cc(C)c(CN3CCCC3)c(O)c12", "Potency": "inactive"}, {"smiles": "CCN(CC)C(=O)c1ccc(-c2nnc(Nc3ccc(C(=O)N(C)C)cc3)c3ccccc23)cc1", "Potency": "inconclusive: 20.6 µM [inhibitor, single point]"}, {"smiles": "COc1cccc2sc(N(CCN(C)C)C(=O)c3ccc4c(c3)CCCC4)nc12", "Potency": "inactive"}, {"smiles": "CN(CC(=O)Nc1ccc(F)cc1)CC(=O)NC1CCCCC1", "Potency": "inactive"}, {"smiles": "Fc1cc(Br)ccc1NC(=S)NCCc1ccccc1", "Potency": "inconclusive: 23.1 µM [activator, partial curve, poor fit]"}, {"smiles": "Cc1ccc(C(=O)Nc2cccc(C(=O)N/N=C/c3ccccc3F)c2)cc1", "Potency": "inconclusive: 5.17 µM [activator, full curve]"}, {"smiles": "CS(=O)(=O)N(CC(=O)N1CCN(Cc2ccc3c(c2)OCO3)CC1)Cc1ccc(Cl)cc1", "Potency": "active: 11.6 µM"}]}]}
